{"sequences": {"note": "Amino acid sequences for entries named in this document (tags omitted). A change or cut given only in a name is not applied to a line headed by its entry.", "UniProt P51450": "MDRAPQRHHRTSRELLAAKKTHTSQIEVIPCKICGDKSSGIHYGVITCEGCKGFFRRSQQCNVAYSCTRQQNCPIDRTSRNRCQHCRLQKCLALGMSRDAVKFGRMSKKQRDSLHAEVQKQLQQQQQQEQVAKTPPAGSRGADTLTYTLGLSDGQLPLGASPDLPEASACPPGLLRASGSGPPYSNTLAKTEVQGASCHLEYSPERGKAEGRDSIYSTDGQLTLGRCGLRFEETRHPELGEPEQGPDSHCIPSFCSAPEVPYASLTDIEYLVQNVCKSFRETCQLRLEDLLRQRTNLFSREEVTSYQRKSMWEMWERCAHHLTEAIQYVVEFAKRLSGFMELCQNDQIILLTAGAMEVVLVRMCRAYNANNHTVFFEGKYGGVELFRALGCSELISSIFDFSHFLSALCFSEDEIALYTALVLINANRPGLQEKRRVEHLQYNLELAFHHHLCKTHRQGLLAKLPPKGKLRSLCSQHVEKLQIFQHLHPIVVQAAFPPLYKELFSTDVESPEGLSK"}, "source": "PubChem BioAssay AID2551", "about": "(National Center for Advancing Translational Sciences (NCATS), 2010)", "note": "The whole screen tested about 310,000 compounds, of which about 17,000 (5.5%) were called active. The shares of active, inactive and inconclusive entries below differ from those in the screen. The call rests on the fitted dose curve; in most records, active means well fitted inhibition curve with a large enough effect; inconclusive means small, poorly fitted or top-dose-only effect, or effect the other way; inactive means no such curve, though single readings can be large or run the other way. Potencies beside an inconclusive call are fits to weak or partial responses and may not hold up. The source holds several records for some structures; these can differ, active in one and inactive in another. On the % scale 0 is the no-effect control and ±100 the full control effect; potency means the concentration at half of the fitted maximal effect.", "data": [{"target": "Nuclear receptor ROR-gamma (Mus musculus) (UniProt P51450)", "test": "qHTS for inhibitors of ROR gamma transcriptional activity; further: nearly all actives have a fitted effect of over 60% in size", "details": "Drosophila S2 Gal4-RORgamma UAS-luciferase reporter, 20 h; activity change, negative = inhibition: at 53.6 µM (top of the series)", "how_it_was_run": "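Stable Schneider cell line, Gal4 DNA-binding domain fused to ROR gamma, UAS-luciferase. Cmpd 1 hr RT → CuSO4 700 uM final → 20 hr RT → luciferase reagent 10 min → luminescence.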", "values": [{"smiles": "O=C(NC1CCCCC1)C1CCCN(S(=O)(=O)c2ccc(F)cc2)C1", "note": "(configuration not stated)", "activity change, negative = inhibition": "inactive: -25.8%"}, {"smiles": "CC(C)c1ccc(Nc2nc(NCc3ccco3)nc(N3CCOCC3)n2)cc1", "activity change, negative = inhibition": "inactive: 12.3%"}, {"smiles": "CCOc1ccc(NC(=O)CCCN2C(=S)NC(C)(C)CC2C)cc1", "note": "(configuration not stated)", "Potency": "inconclusive: 22.4 µM [inhibitor, single point]"}, {"smiles": "O=C(NC(=S)N1CCN(Cc2ccccc2)CC1)c1ccco1", "Potency": "active: 0.891 µM"}, {"smiles": "O=C(Nc1nnc(SCC(=O)N2CCCc3ccccc32)s1)c1ccccc1", "Potency": "active: 6.31 µM"}, {"smiles": "Cc1cc(=O)[nH]c(N/N=C/C=C/c2ccccc2)n1", "Potency": "active: 12.6 µM"}, {"smiles": "C=CCNC(=S)NNc1nc(N2CCCC2)nc(N2CCCC2)n1", "Potency": "active: 2.24 µM"}, {"smiles": "COc1ccc(Cl)cc1Nc1cc(C)nc2nc(C)nn12", "Potency": "inconclusive: 11.2 µM [inhibitor, single point]"}, {"smiles": "O=C(Nc1ccccn1)c1ccc2ccccc2c1O", "Potency": "inconclusive: 20 µM [inhibitor, single point]"}, {"smiles": "O=C(Nc1cccc2ccccc12)/C(Cl)=C/c1ccccc1", "activity change, negative = inhibition": "inactive: 43.5%"}, {"smiles": "COc1ccccc1NC(=O)/C(=C/c1cccc([N+](=O)[O-])c1)c1ccccc1", "Potency": "inconclusive: 12.6 µM [activator, single point]"}, {"smiles": "Cc1ccnc(NC(=O)CCNC(=O)c2ccc(Cl)cc2)c1", "activity change, negative = inhibition": "inactive: -28.3%"}, {"smiles": "COC(=O)c1c(NC(=S)NN2CCN(C)CC2)sc2c1CCC(C)C2", "note": "(configuration not stated)", "Potency": "active: 2 µM"}, {"smiles": "CC1Sc2ccc(S(=O)(=O)N3CCC(C(=O)N(C)Cc4ccccc4)CC3)cc2NC1=O", "note": "(configuration not stated)", "Potency": "inconclusive: 17.8 µM [activator, single point]"}, {"smiles": "CC(O/N=C/c1ccc(OC(F)F)cc1)C(=O)Nc1cccc(S(=O)(=O)N2CCOCC2)c1", "note": "(configuration not stated)", "Potency": "inconclusive: 31.6 µM [activator, single point]"}, {"smiles": "Cc1cccc(NC(=O)c2ccc(N3CCOCC3)c([N+](=O)[O-])c2)n1", "activity change, negative = inhibition": "inactive: 33.2%"}, {"smiles": "Oc1ccc2ccccc2c1CNn1cnnc1", "activity change, negative = inhibition": "inactive: 0.425%"}, {"smiles": "COc1ccccc1NC(=O)CSc1nccn1Cc1ccccc1", "activity change, negative = inhibition": "inactive: -19%"}, {"smiles": "C=CCNC(=O)c1c[nH]c2ccc(S(=O)(=O)N(C)c3ccc(OCC)cc3)cc2c1=O", "Potency": "inconclusive: 35.5 µM [activator, single point]"}, {"smiles": "COc1ccc(C(=O)N2CC3(CC(c4cccc(NC(=O)COc5ccc(Cl)cc5)c4)=NO3)C[C@@H]2C(N)=O)cc1", "note": "(some centres not stated)", "Potency": "inconclusive: 11.2 µM [activator, partial curve]"}, {"smiles": "Cc1c(Cl)cccc1NC(=S)N(C)CCC#N", "activity change, negative = inhibition": "inactive: -33%"}, {"smiles": "COc1ccc(CNC(=O)COc2cc3c(c4oc(=O)cc(C)c24)CCC(C)(C)O3)cc1", "activity change, negative = inhibition": "inactive: 21%"}, {"smiles": "CC1(C)CC(=O)C(C=Nc2ccc(C(=O)c3ccccc3)cc2N=CC2=C(O)CC(C)(C)CC2=O)=C(O)C1", "Potency": "active: 15.8 µM"}, {"smiles": "CC(Sc1nc2ccccc2s1)C(=O)N(C)Cc1ccccc1", "note": "(configuration not stated)", "Potency": "inconclusive: 14.1 µM [activator, single point]"}, {"smiles": "COc1ccc(CCN(C)C(=O)c2cnc(C)cn2)cc1OC", "activity change, negative = inhibition": "inactive: -1.2%"}, {"smiles": "CCOCCCNC(=O)c1ccccc1SCC", "Potency": "inconclusive: 1 µM [inhibitor, partial curve, poor fit]"}, {"smiles": "CCCCn1cnc2cc(C)c(C)cc21", "Potency": "active: 3.98 µM"}, {"smiles": "COc1cc(C(=O)N(C)CC2CCN(CCc3cccc(C(F)(F)F)c3)CC2)ccc1C", "activity change, negative = inhibition": "inactive: -19.3%"}, {"smiles": "COc1ccc(-c2ccc([C@H]3[C@@H]4C=CCC[C@@]4(C)C(=O)N3Cc3ccccc3)c(F)c2)cc1OC", "Potency": "inconclusive: 1 µM [activator, partial curve]"}, {"smiles": "COc1ccc(OCCC(=O)Nc2nccs2)cc1", "Potency": "inconclusive: 15.8 µM [activator, single point]"}, {"smiles": "O=C(CSc1nnc(Cc2ccccc2)n1Cc1ccco1)NC12CC3CC(CC(C3)C1)C2", "Potency": "inconclusive: 12.6 µM [inhibitor, partial curve, poor fit]"}, {"smiles": "Oc1ccc(C2Nc3cccc4cccc(c34)N2)c(O)c1", "Potency": "inconclusive: 14.1 µM [inhibitor, single point]"}, {"smiles": "Cc1ccc(C(=O)N/N=C/c2cc(Br)ccc2O)cn1", "Potency": "active: 2.51 µM"}, {"smiles": "CC1(C)CC(=O)C2=C(C1)Oc1nc3ccccc3cc1C2C(C#N)C#N", "note": "(configuration not stated)", "Potency": "active: 3.16 µM"}, {"smiles": "Cc1cc(C(=O)NNC(=S)NCc2ccco2)nn1C", "Potency": "inconclusive: 7.08 µM [inhibitor, partial curve]"}, {"smiles": "O=C(OCC(=O)N1CCc2ccccc2C1)c1ccc(N2CCOCC2)c([N+](=O)[O-])c1", "Potency": "inconclusive: 31.6 µM [activator, single point]"}, {"smiles": "CC1CCc2sc(-c3n[nH]c(=S)o3)cc2C1", "note": "(configuration not stated)", "Potency": "inconclusive: 35.5 µM [inhibitor, single point]"}, {"smiles": "O=C(/C=C/c1cn(-c2ccccc2)nc1-c1ccc2c(c1)OCCO2)NCCCN1CCOCC1", "Potency": "active: 17.8 µM"}, {"smiles": "Cc1cccc(NC(=S)N(C)C)c1C", "Potency": "inconclusive: 35.5 µM [inhibitor, single point]"}, {"smiles": "CCN(CC)S(=O)(=O)c1ccc(/C=C/C(=O)Nc2ccc(Br)cc2F)cc1", "Potency": "inconclusive: 1.26 µM [activator, full curve, poor fit]"}, {"smiles": "CSc1cccc(NC(=S)N(CCCN2CCCC2)Cc2cccn2Cc2ccc(Cl)cc2)c1", "Potency": "active: 12.6 µM"}, {"smiles": "CC(C(=O)NC(C)(C)C)N(Cc1cccs1)C(=O)CCN1CCc2ccccc21", "note": "(configuration not stated)", "activity change, negative = inhibition": "inactive: 36.2%"}, {"smiles": "CCN(CC)CCN(Cc1cc2cc3c(cc2[nH]c1=O)OCO3)C(=S)NCCCOC", "Potency": "inconclusive: 2 µM [activator, single point]"}, {"smiles": "CCC(C)c1ccccc1NC(=O)c1cccnc1", "note": "(configuration not stated)", "Potency": "active: 11.2 µM"}, {"smiles": "COc1ccc(C=O)cc1Cn1cnc2c(cnn2C)c1=O", "activity change, negative = inhibition": "inactive: 0.995%"}, {"smiles": "Cc1ncc(CN2CCCC(C(=O)Nc3ccc(-c4cscn4)cc3)C2)cn1", "note": "(configuration not stated)", "Potency": "inconclusive: 5.62 µM [activator, single point]"}, {"smiles": "Cc1cc(C(=O)N2CCN(c3ccccc3)CC2)c(C)o1", "activity change, negative = inhibition": "inactive: 22.1%"}, {"smiles": "O=C(CN(C(=O)CCC(=O)Nc1nccs1)c1ccc2c(c1)OCO2)NCC1CCCO1", "note": "(configuration not stated)", "Potency": "inconclusive: 15.8 µM [inhibitor, partial curve]"}, {"smiles": "CC(COc1ccc(C(C)C)cc1)NC(=O)c1ccc(Br)o1", "note": "(configuration not stated)", "Potency": "inconclusive: 17.8 µM [activator, single point]"}, {"smiles": "c1ccc(Nc2nc(-c3ccoc3)nc3ccccc23)cc1", "Potency": "inconclusive: 20 µM [activator, partial curve]"}, {"smiles": "Cc1nc2ccc(C(=O)O)cc2[nH]1", "Potency": "inconclusive: 7.94 µM [inhibitor, partial curve]"}, {"smiles": "COc1cc(C(=O)N/N=C/c2cn(Cc3cccc(F)c3)c3ccccc23)ccc1O", "Potency": "inconclusive: 12.6 µM [inhibitor, single point]"}, {"smiles": "C=CCn1c(Cc2cccc3ccccc23)n[nH]c1=S", "Potency": "active: 3.98 µM"}, {"smiles": "Cc1ccc(-c2nc3cc(NC(=O)C(C)C)ccc3o2)cc1C", "Potency": "inconclusive: 2.51 µM [inhibitor, partial curve]"}, {"smiles": "Cc1cccc(NC(=O)c2cc(NC(=O)c3ccco3)ccc2Cl)n1", "activity change, negative = inhibition": "inactive: 39.1%"}, {"smiles": "Clc1ccc(Cn2c(CN3CCCC3)nc3ccccc32)cc1", "Potency": "active: 2 µM"}, {"smiles": "CC(=O)O[C@]1(C(C)=O)CC[C@@H]2[C@@H]3C=C(Cl)C4=CC(=O)[C@H]5C[C@@H]5[C@]4(C)[C@H]3CC[C@]21C", "activity change, negative = inhibition": "inactive: -21.9% [at 16.9 µM]"}, {"smiles": "CCCc1cc(=O)oc2c(C)c(OC(C)C(=O)NCc3ccccn3)ccc12", "note": "(configuration not stated)", "Potency": "inconclusive: 35.5 µM [activator, single point]"}, {"smiles": "Cc1c(C(=O)N2CCCC2)oc2c1-c1[nH]ncc1CC2", "Potency": "inconclusive: 35.5 µM [inhibitor, single point]"}, {"smiles": "Cc1cccc(NC(=O)Nc2ccc(OCc3ccccc3)cc2)n1", "activity change, negative = inhibition": "inactive: 13.7%"}, {"smiles": "O=C(Nc1cccc([N+](=O)[O-])c1)N1CCc2ccccc2C1", "activity change, negative = inhibition": "inactive: 42.6%"}, {"smiles": "COc1ccccc1-n1c(-c2ccco2)n[nH]c1=S", "activity change, negative = inhibition": "inactive: -41.1%"}, {"smiles": "CCN(CC)c1ccc(C(=C2C=CC(=[N+](CC)CC)C=C2)c2ccccc2)cc1", "Potency": "active: 2.51 µM"}, {"smiles": "Cc1ncc([N+](=O)[O-])n1CC(=O)Nc1ccc(F)c(Cl)c1", "activity change, negative = inhibition": "inactive: 25.1%"}, {"smiles": "COc1ccc(CNc2nc(-c3ccccc3)nn2C(=O)c2cccs2)cc1", "activity change, negative = inhibition": "inactive: -2.46%"}, {"smiles": "O=C(N/N=C/c1ccc(OC(=O)c2cccs2)cc1)c1ccc(F)cc1", "Potency": "inconclusive: 35.5 µM [inhibitor, single point]"}, {"smiles": "O=C(NC(=S)Nc1ccc2oc(=O)ccc2c1)c1cccc(Cl)c1", "Potency": "active: 2.82 µM"}, {"smiles": "CCOC(=O)C1CN(S(C)(=O)=O)c2cc(CC(=O)OC)ccc2O1", "note": "(configuration not stated)", "activity change, negative = inhibition": "inactive: 3.21%"}, {"smiles": "Cc1ccc(C)c(NC(=O)COC(=O)c2cccc3c2C(=O)c2ccccc2C3=O)c1", "activity change, negative = inhibition": "inactive: -5.47%"}, {"smiles": "COc1ccc(NC(=O)c2nc(C)c(C3(C)CC(c4ccccc4)=NO3)s2)cc1", "note": "(configuration not stated)", "activity change, negative = inhibition": "inactive: -21.9%"}, {"smiles": "CC(/C=C1\\SC(=S)N(NC(=O)c2ccncc2)C1=O)=C\\c1ccccc1", "activity change, negative = inhibition": "inactive: 14.2%"}, {"smiles": "C[C@H](NC(=O)c1nc[nH]c1C(=O)NC1CCN(C(=O)OC(C)(C)C)CC1)C(=O)OC(C)(C)C", "Potency": "inconclusive: 3.16 µM [inhibitor, single point]"}, {"smiles": "CC#CCN1c2ccccc2[C@]23C[C@@H](C(=O)OC)N(C(=O)c4cc(C)oc4C)C2=NC(C(=O)OC)=C(C(=O)OC)[C@H]13", "activity change, negative = inhibition": "inactive: 18.2%"}, {"smiles": "O=[N+]([O-])c1cc(S(=O)(=O)N2CCOCC2)ccc1N1CCCC1", "Potency": "inconclusive: 5.62 µM [inhibitor, single point]"}, {"smiles": "O=C(Nc1ccc(N2CCN(c3ncccc3C(F)(F)F)CC2)nc1)c1cccs1", "Potency": "inconclusive: 15.8 µM [activator, partial curve]"}, {"smiles": "COC(=O)C1=C(C)N(C)C(C)=C(C(=O)OC)C1c1ccsc1", "Potency": "inconclusive: 0.141 µM [inhibitor, partial curve, poor fit]"}, {"smiles": "CC(C)Sc1nc(SCC(=O)NCc2ccco2)c2c3c(sc2n1)COC(C)(C)C3", "activity change, negative = inhibition": "inactive: 14.2%"}]}]}
